Reference: PubChem BioAssay (Tox21)
Several values for one entry are separate records, joined by “and”; a condition that tells them apart may be missing. Equal values may be shown once. Inconclusive means that the source gave no clear call. Such entries were picked first, then a sample of the others. For part of these data: Where the call is inconclusive, the potency comes from a doubtful curve fit. Activity calls are given as the source filed them. Unless noted, calls come from the whole dose curve.

Chains of the proteins cited; added tags and fusions are not shown. Lines headed by an entry give the natural chain unless they say otherwise; changes in a name come on top.
UniProt P28223, whole entry, looked up: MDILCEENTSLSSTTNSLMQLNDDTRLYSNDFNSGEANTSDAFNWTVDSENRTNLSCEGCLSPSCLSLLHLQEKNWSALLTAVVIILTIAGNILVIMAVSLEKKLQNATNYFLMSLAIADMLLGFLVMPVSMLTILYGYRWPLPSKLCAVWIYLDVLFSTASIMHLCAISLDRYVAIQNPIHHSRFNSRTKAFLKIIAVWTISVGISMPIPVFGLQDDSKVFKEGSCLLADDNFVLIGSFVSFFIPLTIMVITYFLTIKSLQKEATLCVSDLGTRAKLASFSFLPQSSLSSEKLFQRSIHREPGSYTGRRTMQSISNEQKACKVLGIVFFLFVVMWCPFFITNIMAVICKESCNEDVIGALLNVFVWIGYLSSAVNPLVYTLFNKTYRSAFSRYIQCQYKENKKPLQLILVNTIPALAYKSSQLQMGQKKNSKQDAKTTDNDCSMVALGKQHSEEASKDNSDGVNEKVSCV
UniProt P14416, whole entry, looked up: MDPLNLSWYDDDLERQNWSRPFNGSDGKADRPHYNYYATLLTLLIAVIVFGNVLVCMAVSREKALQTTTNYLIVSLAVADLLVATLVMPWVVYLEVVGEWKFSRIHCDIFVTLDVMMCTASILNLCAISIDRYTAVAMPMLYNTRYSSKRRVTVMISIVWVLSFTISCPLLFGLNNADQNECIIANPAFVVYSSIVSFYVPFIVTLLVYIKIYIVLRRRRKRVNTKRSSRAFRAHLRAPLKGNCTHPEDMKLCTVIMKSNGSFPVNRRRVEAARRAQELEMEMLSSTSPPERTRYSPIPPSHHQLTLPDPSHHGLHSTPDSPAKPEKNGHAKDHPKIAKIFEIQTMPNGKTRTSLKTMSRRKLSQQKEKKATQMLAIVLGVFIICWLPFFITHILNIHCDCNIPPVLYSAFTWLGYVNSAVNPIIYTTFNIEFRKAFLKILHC
UniProt P11229: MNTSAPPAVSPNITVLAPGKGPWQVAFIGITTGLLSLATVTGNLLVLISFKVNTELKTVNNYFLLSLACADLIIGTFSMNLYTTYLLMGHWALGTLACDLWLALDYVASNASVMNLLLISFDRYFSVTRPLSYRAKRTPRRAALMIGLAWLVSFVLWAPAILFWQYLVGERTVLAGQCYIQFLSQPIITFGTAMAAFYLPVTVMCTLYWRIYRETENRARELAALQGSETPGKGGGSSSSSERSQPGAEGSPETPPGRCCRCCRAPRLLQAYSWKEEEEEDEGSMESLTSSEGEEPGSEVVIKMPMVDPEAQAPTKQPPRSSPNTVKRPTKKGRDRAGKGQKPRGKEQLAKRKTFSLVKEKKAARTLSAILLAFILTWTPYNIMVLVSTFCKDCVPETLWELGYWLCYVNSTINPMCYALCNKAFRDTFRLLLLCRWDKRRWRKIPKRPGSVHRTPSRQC

Legend:
[1] = Nuclear factor erythroid 2-related factor 2/antioxidant responsive element (Nrf2/ARE) small molecule agonists: luciferase reporter gene qHTS assay in human keratinocytes (AID 1919969); conditions: KeratinoSens HaCaT ARE-luciferase, luminescence, 24 h; activity, positive = activation: at 92.4 µM (top of the series); note: nearly all actives have a fitted effect of over 35% in size; note: potency is the fitted concentration of half-maximal effect; for activity, positive = activation: % is set by controls: 0 for no effect and ±100 for the full control effect
[2] = p53 small molecule agonists, cell-based qHTS assay with human liver microsomes: qHTS cell viability counter screen (AID 1963579); note: nearly all actives have a fitted effect of over 45% in size; note: potency is the fitted concentration of half-maximal effect
Method in brief: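 After the 460/530 nm beta-lactamase read, CellTiter-Glo was added to the same wells and luminescence measured after 30 min at room temperature, giving viability of p53RE-bla cells treated 16 h with compounds plus microsomes and NADPH.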

[3] = p53 small molecule agonists, cell-based qHTS assay with rat liver microsomes: qHTS cell viability counter screen (AID 1963580); note: nearly all actives have a fitted effect of over 45% in size; note: potency is the fitted concentration of half-maximal effect
Method in brief: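 In HCT-116 cells carrying a p53 response element-bla reporter, compounds were metabolically activated in situ by rat liver microsomes with NADPH over 16 h. Cell ATP content then served as the cytotoxicity measure.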

[4] = cAMP Responsive Elements (CRE) small molecule antagonists, cell-based qHTS assay (AID 1963591; active = well fitted inhibition curve with a large enough effect in the signal ratio in the repeat runs, not every such curve was filed as active; inconclusive = weak or mixed curves, or effect the other way; the % refers to the signal ratio; note: potency is the fitted concentration of half-maximal effect; for activity change, negative = inhibition: % is set by controls: 0 for no effect and ±100 for the full control effect); conditions: CRE-bla HEK293T, beta-lactamase FRET ratio; activity change, negative = inhibition: at 92.4 µM (top of the series) unless noted
Method in brief: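 Inhibition of NKH477-driven (0.25 uM final) CRE-beta-lactamase signal in HEK293T cells, 3 h compound exposure at 37 °C, detected by FRET substrate fluorescence.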

[5] = target: Beta-2 adrenergic receptor (Homo sapiens) (UniProt P07550); experiment: Adrenergic beta2 receptor (ADRB2) small molecule agonists, cell-based qHTS assay (AID 1963593); conditions: CHO-ADRB2 cells, cAMP HTRF, 30 min; activation: at 92.4 µM (top of the series) unless noted; note: potency is the fitted concentration of half-maximal effect;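 for activation: CHO cells stably overexpressing human ADRB2; % is set by controls: 0 for no effect and ±100 for the full control effect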
Method in brief: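 CHO cells stably over-expressing ADRB2 were plated overnight at 37C, then dosed with compounds plus a stimulation mix containing 100uM IBMX and 25uM Ro-20-1724 for 0.5hr at room temperature. cAMP was measured by HTRF competition, 1hr.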

[6] = p53 small molecule agonists, cell-based qHTS assay: qHTS cell viability counter screen (AID 1963581); note: nearly all actives have a fitted effect of over 45% in size; note: potency is the fitted concentration of half-maximal effect
Method in brief: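 In the same plates used for the p53 bla reporter, HCT-116 cells given compounds for 16 h at 37 C received CellTiter-Glo; luminescence was recorded 30 min later at room temperature.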

[7] = cAMP Responsive Elements (CRE) small molecule agonists, cell-based qHTS assay (AID 1963590); conditions: CRE-bla HEK293T, beta-lactamase FRET ratio, 3 h; activation: at 92.4 µM (top of the series) unless noted; note: potency is the fitted concentration of half-maximal effect
Method in brief: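 Cell line: CRE-bla HEK 293T; medium DMEM/10% dialyzed FBS/0.1 mM NEAA/1 mM pyruvate/25 mM HEPES; 3 h compound exposure; beta-lactamase FRET readout after 2 h substrate loading at RT.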

[8] = p53 small molecule agonists, cell-based qHTS assay (AID 1963582; active = well fitted activation curve with a large enough effect in the signal ratio in the repeat runs, not every such curve was filed as active; inconclusive = weak or mixed curves; the % refers to the signal ratio; note: potency is the fitted concentration of half-maximal effect); conditions: HCT-116 p53RE-bla reporter, beta-lactamase FRET ratio, 16 h; activation: at 66 µM (top of the series) unless noted
Method in brief: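 Compounds are pin-transferred in DMSO onto p53RE-bla cells and incubated 16 h at 37 C. The B/G FRET beta-lactamase substrate is then applied for 2 h at RT and fluorescence recorded.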

[9] = p53 small molecule agonists, cell-based qHTS assay with rat liver microsomes (AID 1963578); conditions: HCT-116 p53RE-bla, beta-lactamase ratio, 16 h; activation: at 66 µM (top of the series) unless noted; note: potency is the fitted concentration of half-maximal effect
Method in brief: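 Metabolic activation is supplied by rat liver microsomes with NADPH (each 0.5 mg/mL final). p53RE-bla cells incubate with compound 16 h at 37 C; reporter activity is measured by LiveBLAzer fluorescence.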

[10] = target: 5-hydroxytryptamine receptor 2A (Homo sapiens) (UniProt P28223); experiment: 5-hydroxytryptamine receptor 2A (HTR2A) small molecule agonists, cell-based qHTS assay (AID 1963587); note: nearly all actives have a fitted effect of over 30% in size; note: potency is the fitted concentration of half-maximal effect
Method in brief: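 HTR2A-CHO cells, plated 18 h at 37 C/5% CO2, dye-loaded 1 h at 37 C; compounds in DMSO added by pin tool (agonist mode). Intracellular calcium flux read as kinetic fluorescence on FDSS over 2 min at 1 s intervals.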

[11] = target: D(2) dopamine receptor (Homo sapiens) (UniProt P14416); experiment: Dopamine D2 receptor (DRD2) small molecule agonists, cell-based qHTS assay (AID 1963594); conditions: HEK293-DRD2 cAMP HTRF, agonist mode, 30 min; activation: at 92.4 µM (top of the series) unless noted; note: potency is the fitted concentration of half-maximal effect; nearly all actives have a fitted effect of over 35% in size
Method in brief: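 HEK293 cells stably expressing DRD2 were cultured 24 h at 37 C, then given Ro20-1724 (0.1 mM final) and compounds for 10 min at room temperature. NKH477 (200nM) was then added for 30 min. cAMP was read by HTRF.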

[12] = target: D(2) dopamine receptor (Homo sapiens) (UniProt P14416); experiment: Dopamine D2 receptor (DRD2) small molecule antagonists, cell-based qHTS assay (AID 1963595; active = well fitted inhibition curve with a large enough effect in the signal ratio in the repeat runs, with a control signal flat; inconclusive = weak or mixed curves, or effect the other way; the % refers to the signal ratio; note: % is set by controls: 0 for no effect and ±100 for the full control effect); conditions: HEK293-DRD2 cAMP HTRF antagonist mode; activity change, negative = inhibition: at 92.4 µM (top of the series) unless noted
Method in brief: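 Cells were plated and grown for 24 h at 37 °C. Ro20-1724 (0.1 mM final) went in first, then compound for 10 min. NKH477 (200 nM) with quinpirole (12 nM) followed for 30 min at RT, then HTRF detection reagents for 1 h.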

[13] = target: Beta-2 adrenergic receptor (Homo sapiens) (UniProt P07550); experiment: Adrenergic beta2 receptor (ADRB2) small molecule antagonists, cell-based qHTS assay (AID 1963592); conditions: CHO-ADRB2 cells, isoproterenol-stimulated cAMP HTRF ratio, 0.5 h; activity change, negative = inhibition: at 92.4 µM (top of the series) unless noted; note: % is set by controls: 0 for no effect and ±100 for the full control effect; nearly all actives have a fitted effect of over 50% in size
Method in brief: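 Cells (CHO, stable ADRB2 overexpression) incubated 18-20hr at 37C; compounds added from DMSO; agonist mix (1nM isoproterenol, 100uM IBMX, 25uM Ro-20-1724) added; 0.5hr RT; d2-cAMP and anti-cAMP-cryptate added; 1hr RT; 665/615 nm read.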

[14] = target: Muscarinic acetylcholine receptor M1 (Homo sapiens) (UniProt P11229); experiment: Cholinergic receptor muscarinic 1 (CHRM1) small molecule antagonists, cell-based qHTS assay (AID 1963588); note: % is set by controls: 0 for no effect and ±100 for the full control effect; nearly all actives have a fitted effect of over 40% in size
Method in brief: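 CHRM1-CHO calcium-flux assay, antagonist mode. Cells were seeded 18 h, dye-loaded 1 h at 37 C and given compound for 5 min at RT, then acetylcholine was added at 50nM. FDSS fluorescence was read 3 min; 15 concentrations, three runs.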

[15] = target: Muscarinic acetylcholine receptor M1 (Homo sapiens) (UniProt P11229); experiment: Cholinergic receptor muscarinic 1 (CHRM1) small molecule agonists, cell-based qHTS assay (AID 1963589); note: potency is the fitted concentration of half-maximal effect; nearly all actives have a fitted effect of over 35% in size
Method in brief: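 Each compound was tested at 15 concentrations across three independent runs on dye-loaded CHO cells stably expressing human CHRM1, reading intracellular calcium fluorescence kinetically at 1 sec intervals.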

In the case of `O=[N+]([O-])c1ccc(CCO)cc1`, the Potency [1] is reported as “inactive”, the Potency [2] is reported as “inactive” and the Potency [3] is reported as “inactive”. For the same compound, the Potency [4] was “inactive” and the activation [5] was inconclusive: -16.5%.
For `CCC1=C[C@@H]2CN(C1)Cc1c([nH]c3ccccc13)[C@@](C(=O)OC)(c1cc3c(cc1OC)N(C)[C@H]1[C@@](O)(C(=O)OC)[C@H](OC(C)=O)[C@]4(CC)C=CCN5CC[C@]31[C@@H]54)C2`, the Potency [1] was active: 0.376 µM, the Potency [2] was inconclusive: 0.0561 µM [rising, full curve] and the Potency [3] was inconclusive: 0.141 µM [rising, partial curve]. The Potency [6] was inconclusive: 0.0199 µM [rising, full curve], the Potency [7] was inconclusive: 13.3 µM [fluorescent, partial curve] and the activity change, negative = inhibition [4] was inconclusive: 13.7% [at 42.4 µM].
In the case of `CC(C)OCC1CO1` (configuration not stated), the Potency [1] is reported as active: 30.5 µM, the Potency [2] is reported as inconclusive: 45.5 µM [cytotoxic, single point] and the Potency [6] is reported as inconclusive: 5.1 µM [rising, partial curve, poor fit]. For the same compound, the Potency [5] was inconclusive: 76.5 µM [activator, single point].
In the case of `Oc1ccc(C2(c3ccc(O)c(C4CCCCC4)c3)CCCCC2)cc1C1CCCCC1`, the Potency [1] is reported as inconclusive: 0.0969 µM [activator, single point], the Potency [2] is reported as active: 20.4 µM and the Potency [3] is reported as “inactive”. The Potency [6] was inconclusive: 10.2 µM [cytotoxic, single point], the Potency [8] was inconclusive: 12.9 µM [full curve] and the Potency [7] was inconclusive: 27.3 µM. The Potency [4] was active: 21.7 µM and the Potency [5] was inconclusive: 48.6 µM [inhibitor, partial curve, poor fit].
In the case of `CCCCCCCCCCc1ccccc1`, the Potency [1] is reported as “inactive”, the Potency [9] is reported as “inactive” and the Potency [10] is reported as “inactive”. The activation [5] was inconclusive: 1.44% and the Potency [11] was inconclusive: 0.0086 µM [rising, full curve, poor fit].
With `O=C(/C=C/c1ccc([N+](=O)[O-])cc1)c1ccccc1` the Potency [1] was active: 54.6 µM, the Potency [2] was “inactive” and the Potency [3] was active: 20.5 µM. The Potency [7] was inconclusive: 19.4 µM [fluorescent], the activity change, negative = inhibition [4] was inconclusive: 16.3% and the activation [5] was inconclusive: 1.46%. The activity change, negative = inhibition [12] was inconclusive: -42.6%.
For `Oc1ccc(Cc2ccccc2)cc1`, the Potency [1] was inconclusive: 63.5 µM [activator, single point], the Potency [2] was inconclusive: 47.5 µM [cytotoxic, single point] and the Potency [3] was “inactive”. The Potency [10] was inconclusive: 50.9 µM [activator, single point], the Potency [7] was inconclusive: 71.2 µM and the activity change, negative = inhibition [4] was inconclusive: -40.2%. The Potency [5] was “inactive”.
In the case of `Cc1cc(F)ccc1-c1cc(N2CC[C@@H](O)[C@H]2CO)ncc1N(C)C(=O)C(C)(C)c1cc(C(F)(F)F)cc(C(F)(F)F)c1`, the Potency [1] is reported as “inactive”, the Potency [2] is reported as active: 14.3 µM and the Potency [3] is reported as inconclusive: 25.3 µM [cytotoxic, partial curve, poor fit]. The Potency [6] was active: 16 µM, the Potency [8] was inconclusive: 14.3 µM [falling, full curve, poor fit] and the Potency [10] was “inactive”. For the same compound, the Potency [7] was inconclusive: 42.6 µM [rising, partial curve], the Potency [4] was inconclusive: 39.7 µM [rising, partial curve] and the activity change, negative = inhibition [13] was inconclusive: -20.4%. The activation [5] was inconclusive: 1.3%.
For `COc1c2ccoc2cc2oc(=O)ccc12`, the Potency [1] was inconclusive: 27.3 µM [activator, single point], the Potency [9] was inconclusive: 16.6 µM [activator] and inconclusive: 45.8 µM [fluorescent, partial curve] and the Potency [14] was “inactive”. The Potency [15] was inconclusive: 63.1 µM [rising, partial curve, poor fit], the Potency [13] was “inactive” and the Potency [5] was “inactive”.
With `CC(=O)[C@H]1CC[C@H]2[C@@H]3CCC4=CC(=O)CC[C@]4(C)[C@H]3CC[C@]12C` the Potency [1] was inconclusive: 68.2 µM [activator, single point], the Potency [2] was inconclusive: 45.5 µM [cytotoxic, single point] and the Potency [3] was inconclusive: 0.406 µM [cytotoxic, single point]. The Potency [6] was “inactive”, the Potency [7] was inconclusive: 54.2 µM [fluorescent, partial curve] and inconclusive: 24.3 µM [fluorescent, partial curve] and the Potency [4] was inconclusive: 22.8 µM [fluorescent] and inconclusive: 38.6 µM [fluorescent, partial curve]. The Potency [5] was inconclusive: 21.6 µM [inhibitor, partial curve], the activation [5] was inconclusive: -40.6% and the Potency [11] was inconclusive: 1.22 µM [falling, full curve, poor fit]. For the same compound, the activity change, negative = inhibition [12] was inconclusive: -14.2%.
For `OC[C@H]1O[C@@H](n2cnc3c(=S)nc[nH]c32)[C@H](O)[C@@H]1O`, the Potency [1] was inconclusive: 33.5 µM [activator, single point], the Potency [2] was “inactive” and the Potency [6] was inconclusive: 1.99 µM [cytotoxic, full curve, poor fit]. The Potency [5] was “inactive”.
